This is an account of results in ChEMBL document CHEMBL4602682, “Ikoamide, an Antimalarial Lipopeptide from an Okeania sp. Marine Cyanobacterium” (J Nat Prod, 2020).

Structures are written as SMILES.

The subject of the test is HeLa. Description: Cytotoxicity against human HeLa cells incubated for 72 hrs by MTT assay. The test is classed as ADME, cell-based. A general note: Tetrazolium dyes change colour on reduction, which living cells bring about.

As to `COc1cccc2c1C(=O)c1c(O)c3c(c(O)c1C2=O)C[C@@](O)(C(=O)CO)C[C@@H]3O[C@H]1C[C@H](N)[C@H](O)[C@H](C)O1` [DOXORUBICIN], the IC50 is 240 nM.

Broadly, the IC50 is the midpoint of a concentration-inhibition curve. High values mean weaker potency, low ones greater potency.
